From article PMC9352699
No constants are given. Whether binding was seen depends on the method and setting. Binding seen in cells or lysates may run through a third protein. Some results given as binding are weak or reduced against the parent protein; the word gives no strength. Sequences can lack the tags named with a protein.

Amino acid sequences for entries named in this document (tags omitted).
UniProt Q99J95: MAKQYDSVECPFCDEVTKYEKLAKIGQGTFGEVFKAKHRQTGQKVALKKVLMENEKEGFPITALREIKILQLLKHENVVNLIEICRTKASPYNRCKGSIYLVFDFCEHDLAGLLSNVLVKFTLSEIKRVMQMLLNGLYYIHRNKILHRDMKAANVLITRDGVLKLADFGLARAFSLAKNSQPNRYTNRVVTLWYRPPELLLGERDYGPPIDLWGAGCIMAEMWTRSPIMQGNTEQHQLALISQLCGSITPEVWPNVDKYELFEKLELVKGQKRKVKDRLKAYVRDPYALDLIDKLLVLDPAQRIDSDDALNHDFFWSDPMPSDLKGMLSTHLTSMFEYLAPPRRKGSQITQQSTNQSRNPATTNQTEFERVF
UniProt O09106: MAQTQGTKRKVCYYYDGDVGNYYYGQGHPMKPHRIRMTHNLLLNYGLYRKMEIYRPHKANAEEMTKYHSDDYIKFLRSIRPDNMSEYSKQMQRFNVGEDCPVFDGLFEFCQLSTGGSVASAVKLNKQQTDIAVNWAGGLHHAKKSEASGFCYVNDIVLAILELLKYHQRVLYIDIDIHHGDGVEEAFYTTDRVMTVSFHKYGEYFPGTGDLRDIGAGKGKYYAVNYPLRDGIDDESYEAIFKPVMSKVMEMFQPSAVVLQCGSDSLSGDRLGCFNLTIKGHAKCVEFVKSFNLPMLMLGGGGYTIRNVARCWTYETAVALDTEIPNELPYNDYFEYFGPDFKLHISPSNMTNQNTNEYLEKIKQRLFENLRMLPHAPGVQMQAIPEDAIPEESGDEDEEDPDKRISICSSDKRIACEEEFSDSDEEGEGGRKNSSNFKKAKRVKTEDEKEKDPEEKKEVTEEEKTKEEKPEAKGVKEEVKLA
UniProt Q8C3P7: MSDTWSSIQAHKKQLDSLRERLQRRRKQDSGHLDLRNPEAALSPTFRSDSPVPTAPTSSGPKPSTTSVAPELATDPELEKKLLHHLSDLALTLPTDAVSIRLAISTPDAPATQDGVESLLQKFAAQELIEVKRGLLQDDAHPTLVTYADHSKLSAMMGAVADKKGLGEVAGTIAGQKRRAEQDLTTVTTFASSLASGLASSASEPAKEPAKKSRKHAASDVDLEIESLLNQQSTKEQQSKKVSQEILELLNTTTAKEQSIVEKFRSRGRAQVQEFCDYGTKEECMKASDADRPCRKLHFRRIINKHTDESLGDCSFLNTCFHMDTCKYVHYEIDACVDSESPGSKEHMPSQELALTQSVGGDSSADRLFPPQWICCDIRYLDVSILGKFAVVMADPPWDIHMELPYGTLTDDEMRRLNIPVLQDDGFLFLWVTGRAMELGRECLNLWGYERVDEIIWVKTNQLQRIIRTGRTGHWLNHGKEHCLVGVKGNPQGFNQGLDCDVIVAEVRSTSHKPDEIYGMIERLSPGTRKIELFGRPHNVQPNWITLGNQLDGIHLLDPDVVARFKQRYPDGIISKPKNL

Tests used:
[1] = target: T1, FLAG-WTAP (Wilms' tumor 1-associating protein), expressed in HEK293T cells (UniProt Q9ER69); assay: co-IP; HEK293T cells co-transfected with MYC-CDK9 with or without FLAG-WTAP; total cell lysates immunoprecipitated with FLAG beads; blotted with anti-MYC or anti-FLAG
T1 sequence: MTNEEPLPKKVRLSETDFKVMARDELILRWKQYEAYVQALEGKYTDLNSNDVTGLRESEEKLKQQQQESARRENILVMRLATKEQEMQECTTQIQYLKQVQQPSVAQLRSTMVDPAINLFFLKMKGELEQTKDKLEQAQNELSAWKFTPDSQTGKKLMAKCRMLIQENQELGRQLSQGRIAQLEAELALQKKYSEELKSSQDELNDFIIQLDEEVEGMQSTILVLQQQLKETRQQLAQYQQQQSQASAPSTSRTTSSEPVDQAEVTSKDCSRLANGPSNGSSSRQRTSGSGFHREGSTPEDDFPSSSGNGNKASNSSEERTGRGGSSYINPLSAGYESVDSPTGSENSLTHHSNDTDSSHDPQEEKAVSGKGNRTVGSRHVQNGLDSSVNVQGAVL

[2] = target: T2, FLAG-WTAP, expressed from adenovirus (Ad-FLAG-WTAP) in primary mouse hepatocytes (UniProt Q9ER69); assay: co-IP; primary hepatocytes infected with Ad-βGal or Ad-FLAG-WTAP adenovirus; total cell lysates immunoprecipitated with FLAG beads; blotted for endogenous proteins
T2 sequence: T1 sequence

[3] = target: T1, FLAG-WTAP (Wilms' tumor 1-associating protein), expressed in HEK293T cells; assay: co-IP; HEK293T cells co-transfected with HA-HDAC1 with or without FLAG-WTAP for 48 h; RIPA lysates incubated with DNase1 (200U/ml) at 37 °C for 30 min; immunoprecipitated with FLAG or HA beads at 4 °C for 2 hours; blotted with anti-HA or anti-FLAG

“MYC-CDK9, expressed in HEK293T cells (from UniProt Q99J95 1-372) (enzyme)” was tested, and the binding [1] was “binds”.
For “HDAC1, endogenous in primary mouse hepatocytes (from UniProt O09106 1-482) (enzyme)”, the binding [2] was “binds”.
In the case of “METTL3, endogenous in primary mouse hepatocytes (from UniProt Q8C3P7 1-580) (enzyme)”, the binding [2] is reported as “binds”.
With “HA-HDAC1, expressed in HEK293T cells (from UniProt O09106 1-482) (enzyme)” the binding [3] was “binds”.
